Laboratory results: PubChem BioAssay AID1259281 (Sanger Institute, 2017)
Purpose: 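Find knock-downs that kill colorectal cancer cells alone or strengthen targeted drugs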 (primary screen). System: human COLO678 colorectal cancer cell line. Reagents: siRNA pool against human genes. Challenge: anchor drugs at fixed doses: BYL719 1 µM, cetuximab 5 µg/ml or trametinib 10 nM; DMSO vehicle for the siRNA-alone arm. Measurement: 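Surviving cells scaled to non-targeting siRNA control as replicate means; robust z-score for knock-down alone; synergy scores weigh knock-down with drug against the predicted combined effect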. Scale: robust z-score, siRNA alone: higher = more viable cells; strongly negative means essential. Rule for the call: 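Essential (knock-down alone) when the siRNA-alone robust z-score is below -3; otherwise no change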. Meaning of the calls: active = essential (knock-down alone); inactive = no change.
This is one part, drawn at random, of 794 reagents. 22 of all reagents (2.8%) count as active. 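Calls rest on knock-down alone only; drug synergy scores play no part in them.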 A number with no mark means an inactive call. Further read-outs or replicates are left out here. Not given: the amount of reagent, the time to read-out.

Knock-down of SCYL1 (SCY1 like pseudokinase 1) resulted in: robust z-score, siRNA alone 0.473.
MAPK7 (mitogen-activated protein kinase 7) scored robust z-score, siRNA alone 0.473.
Against ROR2 (ROR family WNT receptor 2), the entry reads robust z-score, siRNA alone 0.473.
FXR1 (FMR1 autosomal homolog 1) showed robust z-score, siRNA alone -0.285.
After knock-down of STK36 (serine/threonine kinase 36), the record shows robust z-score, siRNA alone 0.473.
Knock-down of FN3K (fructosamine 3 kinase) gave: robust z-score, siRNA alone -2.43.
PRKD2 (protein kinase D2) gave robust z-score, siRNA alone 0.473.
Knock-down of PAK2 (p21 (RAC1) activated kinase 2) came out at: robust z-score, siRNA alone -1.12.
Depletion of CKMT2 (creatine kinase, mitochondrial 2) gave: robust z-score, siRNA alone -0.624.
ERBB4 (erb-b2 receptor tyrosine kinase 4) gave robust z-score, siRNA alone 0.473.
After knock-down of ACVR1C (activin A receptor type 1C), the screen gave robust z-score, siRNA alone 0.473.
For DCLK3 (doublecortin like kinase 3), the entry reads robust z-score, siRNA alone -0.588.
For PKIB (cAMP-dependent protein kinase inhibitor beta), the entry reads robust z-score, siRNA alone 0.473.
Against PFKFB4 (6-phosphofructo-2-kinase/fructose-2,6-biphosphatase 4), the values are robust z-score, siRNA alone 0.209.
Knock-down of PRKCI (protein kinase C iota) resulted in: robust z-score, siRNA alone 0.473.
ALPK1 (alpha kinase 1) showed robust z-score, siRNA alone 0.473.
For DCLK2 (doublecortin like kinase 2), the entry reads robust z-score, siRNA alone -0.465.
Knock-down of MARK2 (microtubule affinity regulating kinase 2) gave: robust z-score, siRNA alone 0.473.
Depletion of DGKQ (diacylglycerol kinase theta) came out at: robust z-score, siRNA alone 0.473.
With knock-down of PDGFRB (platelet derived growth factor receptor beta) the results were robust z-score, siRNA alone -0.958.
MST1R (macrophage stimulating 1 receptor) showed robust z-score, siRNA alone 0.473.
After knock-down of DGKB (diacylglycerol kinase beta), the screen gave robust z-score, siRNA alone -6.43 (active).
Silencing of PDGFRA (platelet derived growth factor receptor alpha) gave: robust z-score, siRNA alone 0.473.
Against STK4 (serine/threonine kinase 4) the deposit lists robust z-score, siRNA alone 0.473.
Silencing of PKLR (pyruvate kinase L/R) gave: robust z-score, siRNA alone 0.473.
Against ULK2 (unc-51 like autophagy activating kinase 2), the values are robust z-score, siRNA alone 0.473.
CERT1 (ceramide transporter 1) scored robust z-score, siRNA alone 0.473.
Against CRKL (CRK like proto-oncogene, adaptor protein), the entry reads robust z-score, siRNA alone 0.473.

Records above whose gene name starts with M or m:
MAPK7 (mitogen-activated protein kinase 7): robust z-score, siRNA alone = 0.473
MARK2 (microtubule affinity regulating kinase 2): robust z-score, siRNA alone = 0.473
MST1R (macrophage stimulating 1 receptor): robust z-score, siRNA alone = 0.473
